Measurements as given in patent publication US20110008766A1.
No constants are given. Whether binding was seen depends on the method and setting. Some results given as binding are weak or reduced against the parent protein; the word gives no strength.

Sequences of proteins named here, by UniProt entry; tags and fusion partners are left off. Residues count along the entry.
UniProt P80188, residues 21-198: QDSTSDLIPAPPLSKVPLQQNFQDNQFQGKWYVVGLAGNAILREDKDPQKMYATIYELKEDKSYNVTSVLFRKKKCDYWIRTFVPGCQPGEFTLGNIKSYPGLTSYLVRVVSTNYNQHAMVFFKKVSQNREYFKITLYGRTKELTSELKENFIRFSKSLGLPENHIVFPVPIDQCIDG

B1: DVD719 (antibody)
VH: EVQLVESGGGLVQPGGSLKLSCAASGFTFNNYYMSWVRQTPERRLEWVAYISSSGGSTYYSDSVRGRFTISRDTARNTLYLQMTSLKSEDTAMYYCARHFGDYSYFDYWGQGTTLTVSSASTKGPSVFPLAPEVQLVESGGGLVQPGGSLKLSCAASGFTFNNYYMSWVRQTPERRLEWVAYISSSGGSTYYSDSVRGRFTISRDTARNTLYLQMTSLKSEDTAMYYCARHFGDYSYFDYWGQGTTLTVSS
VL: DIQMTQSPASLSASVGETVTITCRASENFYSYLAWYQQKQGKSPQLLVYNAKTLAEGVPSRFSGSGSGTQFSLKINSLQPEDFGTYYCQHHYDIPLTFGAGTKLELKRTVAAPSVFIFPPDIQMTQSPASLSASVGETVTITCRASENFYSYLAWYQQKQGKSPQLLVYNAKTLAEGVPSRFSGSGSGTQFSLKINSLQPEDFGTYYCQHHYDIPLTFGAGTKLELKR
B2: DVD731 (bispecific antibody)
VH: QVQLQQPGSELVRPGASVKLSCKASGYTFTSYWMHWVKQRPGQGLEWIGNIYPGTVNTNYDEKFKNKATLTVDTSSSTAYMLLSSLTSEDSAVYYCTRDYYGGGLNYWGQGTTLTVSSASTKGPSVFPLAPEVQLVESGGGLVQPGGSLKLSCAASGFTFNNYYMSWVRQTPERRLEWVAYISSSGGSTYYSDSVRGRFTISRDTARNTLYLQMTSLKSEDTAMYYCARHFGDYSYFDYWGQGTTLTVSS
VL: SIVMTQTPKFLLVSAGDRVTITCKASQSVSNDVAWFQQKPGQSPKLLIYYASNRYAGVPDRFTGSGFGTDFTFTISTVQAEDLAVYFCHQDYSSPRTFGGGTKLEIKRTVAAPSVFIFPPDIQMTQSPASLSASVGETVTITCRASENFYSYLAWYQQKQGKSPQLLVYNAKTLAEGVPSRFSGSGSGTQFSLKINSLQPEDFGTYYCQHHYDIPLTFGAGTKLELKR
B3: DVD722 (antibody)
VH: KIQLVQSGPELKKPGETVKISCKASGYTFTNYGMNWVKQAPGKGLKWMGWININTGEPTYAEEFKGRFAFSLETSATTAFLQINNLKNEDTATYLCARDSYSGGFDYWGQGTIVTVSSASTKGPKIQLVQSGPELKKPGETVKISCKASGYTFTNYGMNWVKQAPGKGLKWMGWININTGEPTYAEEFKGRFAFSLETSATTAFLQINNLKNEDTATYLCARDSYSGGFDYWGQGTIVTVSS
VL: DIVMTQSPSSLSVSAGEKVTLSCKSSQSLLISGDQKNYLAWYQQKPGQPPKLLIYGASTRDSGVPDRFTGSGSGADFTLTISSVQAEDLAVYYCQNDHSFPPTFGAGTKLELKRTVAAPDIVMTQSPSSLSVSAGEKVTLSCKSSQSLLISGDQKNYLAWYQQKPGQPPKLLIYGASTRDSGVPDRFTGSGSGADFTLTISSVQAEDLAVYYCQNDHSFPPTFGAGTKLELKR
B4: DVD720 (antibody)
VH: EVQLVESGGGLVQPGGSLKLSCAASGFTFNNYYMSWVRQTPERRLEWVAYISSSGGSTYYSDSVRGRFTISRDTARNTLYLQMTSLKSEDTAMYYCARHFGDYSYFDYWGQGTTLTVSSASTKGPEVQLVESGGGLVQPGGSLKLSCAASGFTFNNYYMSWVRQTPERRLEWVAYISSSGGSTYYSDSVRGRFTISRDTARNTLYLQMTSLKSEDTAMYYCARHFGDYSYFDYWGQGTTLTVSS
VL: DIQMTQSPASLSASVGETVTITCRASENFYSYLAWYQQKQGKSPQLLVYNAKTLAEGVPSRFSGSGSGTQFSLKINSLQPEDFGTYYCQHHYDIPLTFGAGTKLELKRTVAAPDIQMTQSPASLSASVGETVTITCRASENFYSYLAWYQQKQGKSPQLLVYNAKTLAEGVPSRFSGSGSGTQFSLKINSLQPEDFGTYYCQHHYDIPLTFGAGTKLELKR
B5: DVD721 (antibody)
VH: KIQLVQSGPELKKPGETVKISCKASGYTFTNYGMNWVKQAPGKGLKWMGWININTGEPTYAEEFKGRFAFSLETSATTAFLQINNLKNEDTATYLCARDSYSGGFDYWGQGTIVTVSSASTKGPSVFPLAPKIQLVQSGPELKKPGETVKISCKASGYTFTNYGMNWVKQAPGKGLKWMGWININTGEPTYAEEFKGRFAFSLETSATTAFLQINNLKNEDTATYLCARDSYSGGFDYWGQGTIVTVSS
VL: DIVMTQSPSSLSVSAGEKVTLSCKSSQSLLISGDQKNYLAWYQQKPGQPPKLLIYGASTRDSGVPDRFTGSGSGADFTLTISSVQAEDLAVYYCQNDHSFPPTFGAGTKLELKRTVAAPSVFIFPPDIVMTQSPSSLSVSAGEKVTLSCKSSQSLLISGDQKNYLAWYQQKPGQPPKLLIYGASTRDSGVPDRFTGSGSGADFTLTISSVQAEDLAVYYCQNDHSFPPTFGAGTKLELKR
B6: DVD730 (bispecific antibody)
VH: QVQLQQPGSELVRPGASVKLSCKASGYTFTSYWMHWVKQRPGQGLEWIGNIYPGTVNTNYDEKFKNKATLTVDTSSSTAYMLLSSLTSEDSAVYYCTRDYYGGGLNYWGQGTTLTVSSASTKGPEVQLVESGGGLVQPGGSLKLSCAASGFTFNNYYMSWVRQTPERRLEWVAYISSSGGSTYYSDSVRGRFTISRDTARNTLYLQMTSLKSEDTAMYYCARHFGDYSYFDYWGQGTTLTVSS
VL: SIVMTQTPKFLLVSAGDRVTITCKASQSVSNDVAWFQQKPGQSPKLLIYYASNRYAGVPDRFTGSGFGTDFTFTISTVQAEDLAVYFCHQDYSSPRTFGGGTKLEIKRTVAAPDIQMTQSPASLSASVGETVTITCRASENFYSYLAWYQQKQGKSPQLLVYNAKTLAEGVPSRFSGSGSGTQFSLKINSLQPEDFGTYYCQHHYDIPLTFGAGTKLELKR
B7: DVD727 (bispecific antibody)
VH: EVQLVESGGGLVQPGGSLKLSCAASGFTFNNYYMSWVRQTPERRLEWVAYISSSGGSTYYSDSVRGRFTISRDTARNTLYLQMTSLKSEDTAMYYCARHFGDYSYFDYWGQGTTLTVSSASTKGPQVQLQQPGSELVRPGASVKLSCKASGYTFTSYWMHWVKQRPGQGLEWIGNIYPGTVNTNYDEKFKNKATLTVDTSSSTAYMLLSSLTSEDSAVYYCTRDYYGGGLNYWGQGTTLTVSS
VL: DIQMTQSPASLSASVGETVTITCRASENFYSYLAWYQQKQGKSPQLLVYNAKTLAEGVPSRFSGSGSGTQFSLKINSLQPEDFGTYYCQHHYDIPLTFGAGTKLELKRTVAAPSIVMTQTPKFLLVSAGDRVTITCKASQSVSNDVAWFQQKPGQSPKLLIYYASNRYAGVPDRFTGSGFGTDFTFTISTVQAEDLAVYFCHQDYSSPRTFGGGTKLEIKR
B8: DVD726 (bispecific antibody)
VH: KIQLVQSGPELKKPGETVKISCKASGYTFTNYGMNWVKQAPGKGLKWMGWININTGEPTYAEEFKGRFAFSLETSATTAFLQINNLKNEDTATYLCARDSYSGGFDYWGQGTIVTVSSASTKGPEVQLVESGGGLVQPGGSLKLSCAASGFTFNNYYMSWVRQTPERRLEWVAYISSSGGSTYYSDSVRGRFTISRDTARNTLYLQMTSLKSEDTAMYYCARHFGDYSYFDYWGQGTTLTVSS
VL: DIVMTQSPSSLSVSAGEKVTLSCKSSQSLLISGDQKNYLAWYQQKPGQPPKLLIYGASTRDSGVPDRFTGSGSGADFTLTISSVQAEDLAVYYCQNDHSFPPTFGAGTKLELKRTVAAPDIQMTQSPASLSASVGETVTITCRASENFYSYLAWYQQKQGKSPQLLVYNAKTLAEGVPSRFSGSGSGTQFSLKINSLQPEDFGTYYCQHHYDIPLTFGAGTKLELKR
B9: DVD723 (bispecific antibody)
VH: EVQLVESGGGLVQPGGSLKLSCAASGFTFNNYYMSWVRQTPERRLEWVAYISSSGGSTYYSDSVRGRFTISRDTARNTLYLQMTSLKSEDTAMYYCARHFGDYSYFDYWGQGTTLTVSSASTKGPSVFPLAPKIQLVQSGPELKKPGETVKISCKASGYTFTNYGMNWVKQAPGKGLKWMGWININTGEPTYAEEFKGRFAFSLETSATTAFLQINNLKNEDTATYLCARDSYSGGFDYWGQGTIVTVSS
VL: DIQMTQSPASLSASVGETVTITCRASENFYSYLAWYQQKQGKSPQLLVYNAKTLAEGVPSRFSGSGSGTQFSLKINSLQPEDFGTYYCQHHYDIPLTFGAGTKLELKRTVAAPSVFIFPPDIVMTQSPSSLSVSAGEKVTLSCKSSQSLLISGDQKNYLAWYQQKPGQPPKLLIYGASTRDSGVPDRFTGSGSGADFTLTISSVQAEDLAVYYCQNDHSFPPTFGAGTKLELKR

What follows are binders tested against neutrophil gelatinase associated lipocalin (NGAL) (UniProt P80188) (assay: [..] sandwich immunoassay).

binding	Binder
binds	B1
binds	B2
binds	B3
binds	B4
binds	B5
binds	B6
binds	B7
binds	B8
binds	B9
